The other results are listed elsewhere or left out. Most values come without repeats; read them as rough.
Test system: Plasmodium berghei sporozoites
Assay: residual sporozoite gliding motility relative to DMSO control; higher = less inhibition of motility
Conditions: 10 µM; incubation time 30 min

Residual sporozoite gliding motility, > 50%:
COc1cc(OC)c(N(C)C(=O)c2cc3c(s2)-c2ccccc2S(=O)(=O)C3)cc1Cl
Cc1ccnc(NC(c2cccc(OCc3ccccc3)c2)c2ccc3cccnc3c2O)c1 (stereo unspecified)
CC(C)(C)CC(C)(C)NCC(O)COc1ccc(Cl)cc1Cl (stereo unspecified)
Cc1ccc(C(=O)c2oc3ccc4c(C)cc(=O)oc4c3c2C)cc1
CCOC(=O)c1c(NC(=O)c2ccccc2)sc2c(O)c(CN(CC)CC)ccc12
COc1ccc(C2C(C(=O)Nc3cccc(OC)c3)c3ccccc3C(=O)N2C2CCCCC2)cc1 (stereo unspecified)
O=C1c2ccccc2-c2nnc(-c3ccc(Br)cc3)cc21
COc1cccc(-c2nn(C)c3sc(C(=O)NCCN4CCN(c5ccccc5F)CC4)cc23)c1
COc1ccc(C=C2SC(=N)N(c3ccccc3OC)C2=O)cc1
COc1ccc2nc(C)cc(Nc3cccc(O)c3)c2c1
CCOc1cc(Cl)c(C(C)NC(=O)c2ccccc2)cc1OCC (stereo unspecified)
N#Cc1nc(Cc2cccc3ccccc23)oc1N1CCN(C(c2ccccc2)c2ccccc2)CC1
COc1cc(C(=O)Nc2ccc(-c3nc4ccccc4[nH]3)cc2)cc(OC)c1OC
Cc1ccc(C2CC(C(F)(F)F)n3nc(C(=O)N4CCN(C(c5ccccc5)c5ccccc5)CC4)cc3N2)cc1 (stereo unspecified)
Cc1ccc(Nc2nc(-c3ccccn3)cs2)cc1
CCOC(=O)C1=CN(C)C=C(C(=O)OCC)C1c1cc(Br)c(OCC)c(OC)c1
CCN1CCN(c2cc(C)c3cc(NC(=O)c4ccc(OC)c(OC)c4)ccc3n2)CC1
CCOc1ccccc1NC(=O)CN1CCN(C(=O)c2ccco2)CC1
CCc1ccc(Nc2cc(C)c3ccc(O)cc3n2)cc1
CC(C)(C)C(=O)Nc1ccc(C(=O)Nc2cccc(-c3nc4ccccc4[nH]3)c2)cc1
O=C1c2ccccc2C2=Nc3ccccc3SC(c3cccc(F)c3)C12 (stereo unspecified)
O=C(CCc1ccccc1)c1ccccc1OCC(O)CN1CCCCC1 (stereo unspecified)
Cc1ccc(-c2nc3ccccc3o2)cc1NCc1cc(Cc2ccccc2)ccc1O
CCc1ccc(CNCC(O)c2ccccc2)cc1 (stereo unspecified)
CCOc1ccc2c(c1)CN(Cc1ccc(Cl)cc1)CO2
Cc1cc(C)c2nc(N3CCC(C(=O)NCCCN4CCC(N5CCCCC5)CC4)CC3)sc2c1
CCOc1cccc(C(=O)Nc2ccc(-c3nc4ccccc4[nH]3)cc2)c1
Cc1cc(NC(=O)C2c3ccccc3C(=O)N(CC(C)C)C2c2cccs2)no1 (stereo unspecified)
Cc1ccc(OCCCCCCNCCO)c(C)c1
Cn1c(C(=O)c2cccc3ccccc23)nc2ccccc21
COc1ccc2nc(N)nc(C)c2c1
CCOc1cc(Cl)c(C(C)NC(=O)c2cccc(OC)c2)cc1OCC (stereo unspecified)
COC(=O)c1ccc(Cl)c2c1C1C=CCC1C(c1cccc3ccccc13)N2 (stereo unspecified)
CC(C)c1ccc(CNCC(O)c2ccccc2)cc1 (stereo unspecified)
COCCNCC(O)Cn1c2ccc(Cl)cc2c2cc(Cl)ccc21 (stereo unspecified)
COc1ccc(NC(=O)C2c3ccccc3C(=O)N(CC(C)C)C2c2cccs2)cc1Cl (stereo unspecified)

Arranged by length of the SMILES (falling): 3 of the compounds above
Residual sporozoite gliding motility, > 50%:
CCOC(=O)C1=CN(C)C=C(C(=O)OCC)C1c1cc(Br)c(OCC)c(OC)c1
O=C(CCc1ccccc1)c1ccccc1OCC(O)CN1CCCCC1 (stereo unspecified)
CCc1ccc(Nc2cc(C)c3ccc(O)cc3n2)cc1
